Test results taken from PMC11878764, “MaEIL4-MaMADS36-MaACS7 module transcriptionally regulates ethylene biosynthesis during banana fruit ripening”.
The exact form of at least one protein or probe is not confirmed.

System: GST-MaEIL4 (Musa spp. (banana))
Test: EMSA
Settings: EMSA according to Liu et al. [22]; recombinant protein; protein details: GST (pGEX-4T-1)

## CTTTGAA (double strand) [MaMADS36 promoter TGAA probe]
  binding result: binds
